Measurements reported in the supplement of paper PMC5949888.
Most values lie at the floor of the assay. Slopes are relative: functional sequences can read slightly below zero.

What follows are substances tested on Saccharomyces cerevisiae PS128 hsf1 delta, HSF1(1-493) fusion (assay: growth estimate (transactivation domain function in HSF1 fusion, heat-shock survival) (a.u. (slope of normalised read count over time)); higher = stronger growth at 37°C, i.e. more transactivation activity). Conditions: library: random library.

| Substance | growth estimate |
| --- | --- |
| ALTQSHLWAIDWRGVYQNRG | < -0.25 |
| AYSRYKGK | -0.246 |
| VLASQHLSTGHAFTVQHAGA | < -0.25 |
| QQVHQVVNPRSCRKCLEGFR | < -0.25 |
| SPDSNSKSP | < -0.253 |
| ERNNLNVGRSGMFASLGWNR | < -0.25 |
| RCLAVVYN | < -0.25 |
| NLFI | < -0.25 |
| GGMS | < -0.25 |
| SPEDHSRSCFLKI | < -0.25 |
| RYTQNKSPWALVDRGGRSED | < -0.25 |
| FSNPRSDVIALWLPTTWGC | < -0.25 |
| HVKSRSYLPSTRSLKFRYIC | -0.246 |
| IRPVVDTRVVAQIDDRGVPE | < -0.25 |
| RDYL | < -0.25 |
| GTPSLWPLPLQLVDMECKA | < -0.25 |
| IDWTIIRCAQPKIRDWTSNL | < -0.25 |
| DRILFHRTPLTRTGVQPLTS | < -0.25 |
| GWLQRRLMLLGRSRGHTGLS | < -0.25 |
| LWLQPVRMWLTKTS | < -0.25 |
| TVVREGSGGN | < -0.25 |
| QRPSDVLNYESSSTYGPVYA | < -0.25 |
| PLSI | < -0.25 |
| GRAYPRVYGSDVSPRQNEAL | < -0.25 |
| VHYAFLRGSFRGNYNWMHKI | < -0.25 |

| Substance | growth estimate |
| --- | --- |
| PFRM | < -0.25 |
| TATVSHGSPGEKFVRRFSCT | < -0.25 |
| DTSSNASHMHCSGGKAVSKS | < -0.25 |
| NTQVRLSVRYNFRRPSTQQ | < -0.25 |
| GGLKTA | -0.237 |
| RVGL | < -0.25 |
| GRPYAKVISCM | < -0.25 |
| RESTAL | < -0.25 |
| RGMSAHAHEGGEFTI | -0.25 |
| SCCVPKTVNAGTVDCKSHGQ | -0.229 |
| SVSERKMTTCYARAFARWIR | < -0.25 |
| HLMSSANTIVAPVNMLTLGQ | < -0.25 |
| QERYWNIFMQYVRQDGTGKR | < -0.25 |
| VSEAI | < -0.25 |
| RWMRVQGDPEPREFNRFHRG | < -0.25 |
| MAMRSGPIS | < -0.25 |
| SAN | < -0.25 |
| SNNRERVPSLVPGHLHRCRV | < -0.25 |
| VMSILLNLKVTHPAGRDDQA | < -0.25 |
| TIASGRYNGSGCWVC | < -0.25 |
| ATVYIADHSQDSDSFDPVAS | < -0.25 |
| RILPGRKFDLGNAALGTGVH | < -0.25 |
| RCLF | < -0.25 |
| VMERRDQREIGMRACRTFRP | < -0.25 |
| PSFGPEQADHAVTGHVPGEV | < -0.25 |

Single values from the entries so far.
growth estimate, VSEAI is entered as < -0.25
growth estimate, RVGL is entered as < -0.25
growth estimate, GRPYAKVISCM is entered as < -0.25
growth estimate, VMSILLNLKVTHPAGRDDQA is entered as < -0.25
growth estimate, RCLF is entered as < -0.25
growth estimate, TIASGRYNGSGCWVC is entered as < -0.25

The list continues.

| Substance | growth estimate |
| --- | --- |
| SWFAIAWSPAKYKGADARAR | < -0.25 |
| VALAQLIIKSQWSYRSVRPH | < -0.25 |
| VREGRRLRFLASGELTDCRK | < -0.25 |
| ITRSQKFSVSVTSTARRTFD | < -0.25 |
| RRVCRKSERVHIAQARTCCT | < -0.25 |
| RIHCSLGDVFAASALRV | < -0.25 |
| MDK | < -0.25 |
| CHVGS | < -0.25 |
| RRPVNRPAQDY | < -0.25 |
| IQVGHETLYFSR | < -0.25 |
| LRESRLADLCPYFT | -0.246 |
| PGGGKSTLVVRGHYEWWRDM | < -0.25 |
| LQSPTDGSVGCVFFLEDPGG | < -0.25 |
| GTPSVYQYTLCSFESQSQFP | -0.219 |
| KYDCRRGCLPRSLPDKR | < -0.25 |
| NRVYASPVKTA | < -0.25 |
| FSGGTDPPR | < -0.25 |
| KFKLGAIRVEFWAGLDRDGT | < -0.25 |
| WYLGQLWEMG | < -0.25 |
| IFVLFRKSQSCIKSL | < -0.25 |
| PQKKRDIASSGFGGS | < -0.25 |
| VFGFCHVARKWGNPLVKFSR | < -0.25 |
| PKDRC | < -0.25 |
| TLRGEDAKLFRTNVCPLVSP | < -0.25 |
| SVTGWFGFHRCSCVRGPDDR | < -0.25 |

| Substance | growth estimate |
| --- | --- |
| DRKCGLDPTSIATSTLQIVA | < -0.25 |
| AQFRFVCSRVCRADGKEDRA | < -0.25 |
| MAIDGLYVFSTTALFEGRAL | < -0.25 |
| IKQ | < -0.25 |
| EKSRITASGRVFSRGLSRLV | < -0.25 |
| VFRTVTIFESEALVEYHQVP | < -0.25 |
| GPRVV | < -0.25 |
| LNAPVH | < -0.25 |
| IPDNAAISSFLKVLVGGQPP | < -0.25 |
| IIGNLLKGSL | < -0.25 |
| FFQ | < -0.25 |
| LRQPRTGSSLSAAHIGLRGL | < -0.25 |
| PFGSPAFWHSYQTK | < -0.25 |
| IKLKGRVRCLDTPRSTGSVS | < -0.25 |
| LQM | < -0.25 |
| HFHGMLGFGR | < -0.25 |
| ERGYSSAAAKPKQSHKRLSR | < -0.25 |
| AKYQCQRL | < -0.25 |
| RVNGRNQGGRDVPSIGCHIG | < -0.25 |
| LSLSGFRSQSGARLACRLIL | < -0.25 |
| TNGTGVIFELVSPTTGWSKC | < -0.25 |
| AMHRGEASWSYSDSIRPYEA | < -0.25 |
| FKSDVLFLTSDTSIGSGYRN | -0.228 |
| GPLAC | < -0.25 |
| KTPDTR | < -0.25 |

Rewritten with tabs: entries from further up
Substance	growth estimate
RVNGRNQGGRDVPSIGCHIG	< -0.25
LSLSGFRSQSGARLACRLIL	< -0.25
TNGTGVIFELVSPTTGWSKC	< -0.25
AMHRGEASWSYSDSIRPYEA	< -0.25
FKSDVLFLTSDTSIGSGYRN	-0.228
GPLAC	< -0.25
KTPDTR	< -0.25

Going on with the list:

| Substance | growth estimate |
| --- | --- |
| VTGV | < -0.25 |
| FRDKFP | < -0.25 |
| LWN | < -0.25 |
| TSMTITLLVESFKRLLCSSA | < -0.25 |
| VRFIG | < -0.25 |
| KLERASVRAQDNSVTEATRS | < -0.25 |
| TKVEVGPRLPRLMSKIELCP | < -0.25 |
| LNWYRHRFACLHGRPQWTRS | < -0.25 |
| PFHVTVRRLTA | < -0.25 |
| WPVVAVGQTHPVVGWYDRMR | < -0.25 |
| LADIWLYLARSSAEGGRQVV | < -0.25 |
| HWPGDFVTCLRVVPHIDALS | < -0.25 |
| VCKASGSQKEIRGDTRALRP | < -0.25 |
| LALGSFDPAVALMDGVALQN | < -0.25 |
| LELGEHVCVKKAPPHSAFKL | -0.229 |
| GSPKRAGQK | < -0.25 |
| TVYGDRGNVQSRRILLPSFI | -0.245 |
| CQSCQH | < -0.25 |
| CRTDPPQTSCYVG | < -0.25 |
| EVTDFVSLRDIKQVPKAAAI | < -0.25 |
| SLRSCDQRTSDARVSTSDLG | < -0.25 |
| SVIKMQSQGVSWHIKRISVV | < -0.25 |
| LKLPVVRESDTDVVELSLSN | < -0.25 |
| LAI | < -0.25 |
| FVGGLGGCHMFVLNALERCT | < -0.25 |

| Substance | growth estimate |
| --- | --- |
| LVMLTCQVRSNSSSAVRGKL | < -0.25 |
| DGTYGYMESRRHTLAVVGAV | < -0.25 |
| ATRESGPRF | < -0.25 |
| PQREVLLESRHLVPRQNLPR | < -0.25 |
| GRNYATPGVDRTLSAKKCTV | < -0.25 |
| KKLRDTDAGTKKAPMTHYDA | < -0.25 |
| CSPFCAQSRGTRAKFEGLCA | < -0.25 |
| NSYNRILAS | < -0.25 |
| SCYVNCVRGFQSCDRS | < -0.25 |
| KNKLRSSKSALSHLVA | < -0.25 |
| SSRTVDLRLQSCGFSQITPR | < -0.25 |
| GIIKSNQSLEAAHRVTFGSD | < -0.25 |
| SKNENPYESSVHPGFTPRRL | < -0.25 |
| AYPRRPESWQNIFGRTRDLC | < -0.25 |
| LTSNG | < -0.25 |
| SSFAIAPFLSKVAMRYSLRG | < -0.25 |
| LHRILTRAFLSTQSSVWSRH | < -0.25 |
| ISCGGSAMRPAGWYVEDSGR | < -0.25 |
| GGRDDRPPSYRGQVARSLGI | < -0.25 |
| SGVRWVVRS | < -0.25 |
| CTE | < -0.25 |
| MGYLL | < -0.25 |
| TLLVRGTHASMPEGVVIKLL | -0.25 |
| KHEKVTLI | < -0.25 |
| PARCYA | < -0.25 |

| Substance | growth estimate |
| --- | --- |
| QKIPSFQSGCCF | < -0.25 |
| SMFSDMAPDS | < -0.25 |
| RRSPKCGEDAPRELVFGTND | < -0.25 |
| YHHRVPNGMRHHTAHMTRVA | < -0.25 |
| RVSRFEEK | < -0.25 |
| KYPLSGSFCCTGPVLPGRPV | < -0.25 |
| SVGKIGGTDVGRIIELRS | -0.194 |
| SALHHICIP | < -0.25 |
| PKPHLVLPDYRLEELLSTAV | < -0.25 |
| VCPSLASDRGGRFCNSPSAL | < -0.25 |
| YQL | < -0.25 |
| ESVWDRAASRATRHAMYYT | < -0.25 |
| CLGRIVGSGTGGRYWRVCLV | < -0.25 |
| RIGVYAFTLCGRPCSAKYDG | < -0.25 |
| NRNGSAMGSLRM | < -0.25 |
| NREHVTRRVNTIILT | < -0.25 |
| RDLSDKG | < -0.25 |
| PWM | < -0.25 |
| QQVATRYLKLADSVVHLCVR | < -0.25 |
| WACIRSVC | < -0.25 |
| SNA | < -0.25 |
| SNVLLG | < -0.25 |
| GKLVQPAQRHVGWHMSHQVW | < -0.25 |
| RGGSDTCAEGCLSTKASWVE | < -0.25 |
| GWRC | < -0.25 |

| Substance | growth estimate |
| --- | --- |
| KRQTSISGWGANRARRTCGL | < -0.25 |
| IGAGNPIVTGCVGCCWFAST | < -0.25 |
| ETIWGKACSTRVDRSGLSPQ | < -0.25 |
| GATAPDLCWKPLWAANQYPC | < -0.25 |
| FDLEHVPVTKMIYGPKEATV | < -0.25 |
| SDTW | < -0.25 |
| GSSDSFLPVFKRGWASKIAL | < -0.25 |
| LRCISRLTLGLITSPSLGNG | < -0.25 |
| VQMTDKVQP | < -0.25 |
| LNHIALRIPLWGIAVDVRQV | < -0.25 |
| KGVTLPWLVYAWERSPWDLF | < -0.25 |
| PCHG | < -0.25 |
| INPR | < -0.25 |
| PVTGWIDLET | < -0.25 |
| NGNMRGDRRSVATT | < -0.25 |
| GVRNPVCLRSCYGAMRS | < -0.25 |
| YFYTQRSEQRYSACQCKNRV | < -0.25 |
| ATPICCQHGV | < -0.25 |
| RITCGNLNTPRDESA | < -0.25 |
| PGIGLIQRTAVAIWLSWGMS | < -0.25 |
| ESEGSG | < -0.25 |
| RLSYAV | < -0.25 |
| RTPWGVYI | < -0.25 |
